The list does not hold the whole screen: it is rich in T/C values a quarter to a half above the control, in often repeated tests (any T/C) and in doses without a T/C. Further doses and runs are listed elsewhere. T/C: endpoint of the treated group in % of that of the vehicle group. Some entries give survivors of the animals treated and no T/C: the source holds a T/C of zero for them, seemingly a mark for toxic or unscored doses. Some doses without a T/C left all or most animals alive at the check, yet need not have been tolerated: the source hardly ever lists a survival T/C far under the control, and the zero likely stands for such cases as well. Counts of survivors are from the toxicity check (mostly the fifth day) where no day follows; animals may have died later. Schedule codes are those of the source, read here as Q, the interval in days (D) or hours (H), X, the number of doses. Some entries were tested several times; the results are listed from low to high. Where survival is the endpoint, the PubChem record calls one and a half times the control and up active, and a quarter to a half above the control has no call in these data; cut-offs in other NCI protocols can differ. Counts like (3×) count equal records among those shown. Some T/C values are followed by the survivors on the day toxicity was checked, most often the fifth; without a count, all were alive then.
Test system: BDF1 mice, P388 leukemia ip, median survival T/C
Assay: NCI In Vivo Anticancer Drug Screen. Data for tumor model P388 Leukemia (intraperitoneal) in B6D2F1 (BDF1) mice
Conditions: T/C endpoint: median survival time, higher T/C = longer survival
In short: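 Each value expresses how treatment altered survival: treated-mouse outcome over vehicle-mouse outcome, both groups bearing the transplanted tumour.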

[1] = dose: 25.0 mg/kg/injection, schedule: Q01DX005 (ip), vehicle: Klucel (hydroxypropylcellulose) (HPC)
[2] = dose: 25.0 mg/kg/injection, schedule: Q01DX009 (ip), vehicle: Klucel (hydroxypropylcellulose) (HPC)
[3] = dose: 50.0 mg/kg/injection, schedule: Q01DX001 (ip), vehicle: Klucel (hydroxypropylcellulose) (HPC)
[4] = dose: 50.0 mg/kg/injection, schedule: Q01DX005 (ip), vehicle: Klucel (hydroxypropylcellulose) (HPC)
[5] = dose: 50.0 mg/kg/injection, schedule: Q01DX009 (ip), vehicle: Klucel (hydroxypropylcellulose) (HPC)
[6] = dose: 50.0 mg/kg/injection, schedule: Q04DX002 (ip), vehicle: Klucel (hydroxypropylcellulose) (HPC)
[7] = dose: 50.0 mg/kg/injection, schedule: Q04DX003 (ip), vehicle: Klucel (hydroxypropylcellulose) (HPC)
[8] = dose: 100.0 mg/kg/injection, schedule: Q01DX001 (ip), vehicle: Klucel (hydroxypropylcellulose) (HPC)
[9] = dose: 100.0 mg/kg/injection, schedule: Q01DX005 (ip), vehicle: Klucel (hydroxypropylcellulose) (HPC)
[10] = dose: 100.0 mg/kg/injection, schedule: Q04DX003 (ip), vehicle: Klucel (hydroxypropylcellulose) (HPC)
[11] = dose: 200.0 mg/kg/injection, schedule: Q01DX001 (ip), vehicle: Klucel (hydroxypropylcellulose) (HPC)
[12] = dose: 200.0 mg/kg/injection, schedule: Q01DX005 (ip), vehicle: Klucel (hydroxypropylcellulose) (HPC)
[13] = dose: 200.0 mg/kg/injection, schedule: Q01DX009 (ip), vehicle: Klucel (hydroxypropylcellulose) (HPC)
[14] = dose: 200.0 mg/kg/injection, schedule: Q04DX003 (ip), vehicle: Klucel (hydroxypropylcellulose) (HPC)
[15] = dose: 400.0 mg/kg/injection, schedule: Q01DX001 (ip), vehicle: Klucel (hydroxypropylcellulose) (HPC)
[16] = dose: 400.0 mg/kg/injection, schedule: Q04DX002 (ip), vehicle: Klucel (hydroxypropylcellulose) (HPC)
[17] = dose: 400.0 mg/kg/injection, schedule: Q04DX003 (ip), vehicle: Klucel (hydroxypropylcellulose) (HPC)
[18] = dose: 12.5 mg/kg/injection, schedule: Q01DX009 (ip), vehicle: Klucel (hydroxypropylcellulose) (HPC)

SMILES: CN(C)c1nc(N(C)C)nc(N(C)C)n1
- T/C [1]: 90, 92, 93, 98 (2×), 99 (3×), 100 (4×), 101 (2×), 102, 103 (3×), 104 (2×), 105, 106, 107, 108 (2×), 109 (2×), 111 (2×), 112, 113, 116, 120, 150 % of control
- survivor count [1]: 2 of 3
- T/C [2]: 90, 92, 94 (3×), 95 (2×), 97 (3×), 100 (2×), 101 (2×), 103 (2×), 104, 106 (2×), 107 (2×), 109, 109 [5 of 6 alive], 110, 111 (2×), 113 (2×), 115, 125, 128 % of control
- survivor count [2]: 3 of 3
- T/C [3]: 87, 88, 93, 94, 100 (4×), 102 (2×), 103, 104 (3×), 105, 105 [2 of 3 alive], 106, 107 (4×), 109, 110, 114, 115, 117, 128 % of control
- survivor count [3]: 5 of 6
- T/C [4]: 90, 94, 97, 99, 100 (2×), 102 (2×), 104, 105, 106 (2×), 107 (5×), 108 (4×), 109, 110, 111, 112, 114, 115, 117 (2×), 119 (2×), 120, 123, 131 % of control
- survivor count [4]: 3 of 3
- T/C [5]: 87, 88, 90 (2×), 92, 94 (3×), 95, 97 (2×), 100, 101, 103 (4×), 104 (2×), 105, 106, 108, 109, 110 (2×), 111 (3×), 112, 113, 118, 123, 129, 150 % of control
- survivor count [5]: 3 of 3 and 6 of 6
- T/C [6]: 86, 88, 89 (2×), 91, 94, 95, 99 (2×), 100 (3×), 101, 103 (2×), 104 (2×), 106 (4×), 107 (3×), 109 (2×), 111, 113, 114, 117, 121 [5 of 6 alive], 122 % of control
- survivor count [6]: 3 of 3
- T/C [7]: 87, 94, 97, 98, 100 (5×), 101 (2×), 102 (3×), 105 (6×), 106, 107 (2×), 108 (3×), 110 (2×), 111 (2×), 115, 116 % of control (2×)
- survivor count [7]: 2 of 3 and 3 of 3
- T/C [8]: 87, 91, 92, 94, 95, 96 (2×), 98, 99 (2×), 100, 101, 102, 103, 104, 105 (2×), 106 (2×), 106 [5 of 6 alive], 109, 110, 111, 113, 116, 126 % of control
- survivor count [8]: 6 of 6
- T/C [9]: 90, 93, 99, 100, 101, 103 [5 of 6 alive], 105 (2×), 107 (3×), 107 [2 of 3 alive], 108, 111 (2×), 113, 115 (3×), 117 (2×), 117 [5 of 6 alive], 119, 124, 126, 127, 128 (2×), 131, 133, 137, 138, 144 % of control (2×)
- survivor count [9]: 1 of 3
- T/C (dose: 100.0 mg/kg/injection, schedule: Q01DX009 (ip), vehicle: Klucel (hydroxypropylcellulose) (HPC)): 87, 90, 93, 97, 97 [2 of 3 alive], 101, 102 (2×), 103 (2×), 104, 106 (2×), 107 (2×), 108, 109, 110, 111 (3×), 113, 113 [5 of 6 alive], 115, 119, 120, 122 (2×), 125, 126, 127, 130 (2×), 131 (2×), 143 % of control
- T/C (dose: 100.0 mg/kg/injection, schedule: Q04DX002 (ip), vehicle: Klucel (hydroxypropylcellulose) (HPC)): 88, 90, 92 (2×), 94, 97, 98, 100, 101, 102, 103 (4×), 104 (2×), 105 (3×), 106 (3×), 109 (5×), 111 (2×), 117 (2×), 120 (2×), 125 % of control
- T/C [10]: 86, 87 (2×), 93, 96 (2×), 99, 102 (2×), 103, 104 (2×), 105 (4×), 106, 107 (4×), 109 (2×), 110, 111 (3×), 112 (2×), 115, 116, 117, 123, 133, 151 % of control
- survivor count [10]: 2 of 3
- survivor count (dose: 160.0 mg/kg/injection, schedule: Q01DX009 (ip), vehicle: saline with Tween-80): 10 of 10
- T/C [11]: 90, 94 (2×), 95, 99, 100, 104 (2×), 105 (3×), 106 (4×), 107 (2×), 108, 111 (2×), 113, 117, 118, 121 (2×), 123, 130 % of control
- survivor count [11]: 2 of 3
- T/C [12]: 93, 94 [5 of 6 alive], 96, 100 [5 of 6 alive], 103, 106, 116, 121, 123, 124, 125, 126, 133, 139 % of control
- survivor count [12]: 3 of 6, 2 of 3, 5 of 6, 3 of 3, 6 of 6
- T/C [13]: 87 [5 of 6 alive], 92 (2×), 93, 97, 100, 108 (2×), 109 (2×), 112, 113, 114, 121, 128 % of control
- survivor count [13]: 1 of 3, 3 of 6, 2 of 3, 4 of 6, 5 of 6, 3 of 3, 6 of 6
- T/C (dose: 200.0 mg/kg/injection, schedule: Q04DX002 (ip), vehicle: Klucel (hydroxypropylcellulose) (HPC)): 87, 91, 95, 100, 103 (3×), 104, 105, 108 (2×), 109, 111 (4×), 112 (4×), 115 (2×), 117, 118 (2×), 120, 121, 123, 128, 132, 134 (3×), 137 % of control
- T/C [14]: 87, 91, 94, 96, 100, 102, 104 (2×), 105, 109, 110 (2×), 112 (2×), 113, 114 (3×), 114 [2 of 3 alive], 115, 117 (2×), 118, 119, 121 (2×), 122, 123 (2×), 125 (2×), 126, 127, 134, 140 % of control
- survivor count [14]: 3 of 3
- survivor count (dose: 300.0 mg/kg/injection, schedule: Q01DX009 (ip), vehicle: Klucel (hydroxypropylcellulose) (HPC)): 6 of 6
- survivor count (dose: 300.0 mg/kg/injection, schedule: Q01DX009 (ip), vehicle: saline with Tween-80): 9 of 10
- T/C [15]: 91, 93, 95, 96, 100 [5 of 6 alive], 104, 105, 106 (2×), 108, 109, 110 (2×), 111, 113, 114, 116 [2 of 3 alive], 126 [5 of 6 alive], 129 % of control [2 of 3 alive]
- survivor count [15]: 0 of 3, 1 of 3, 3 of 6, 5 of 6, 6 of 6
- survivor count (dose: 400.0 mg/kg/injection, schedule: Q01DX009 (ip), vehicle: Klucel (hydroxypropylcellulose) (HPC)): 5 of 6
- T/C [16]: 90 [5 of 6 alive], 97 [5 of 6 alive], 100, 102 (2×), 105, 109, 112, 141, 143 % of control (2×)
- survivor count [16]: 0 of 3, 1 of 6, 1 of 3, 2 of 6, 3 of 6, 2 of 3, 4 of 6, 3 of 3, 6 of 6
- T/C [17]: 88, 94, 100 [5 of 6 alive], 102, 104, 107, 108, 127, 135, 220 % of control
- survivor count [17]: 1 of 6, 1 of 3, 2 of 3, 4 of 6, 5 of 6, 3 of 3, 6 of 6
- survivor count (dose: 450.0 mg/kg/injection, schedule: Q01DX009 (ip), vehicle: saline with Tween-80): 4 of 10

SMILES: COc1ccc2c(C)[n+]3ccc4cc(OC)c(OC)cc4c3cc2c1 (tested in a mixture with another compound)
- T/C (dose: 50.0 mg/kg/injection, schedule: Q01DX009 (ip), vehicle: saline): 140 % of control
- T/C (dose: 100.0 mg/kg/injection, schedule: Q01DX009 (ip), vehicle: saline): 145 % of control
- T/C (dose: 100.0 mg/kg/injection, schedule: Q04DX003 (ip), vehicle: saline, evaluated on day 30): 145 % of control
- T/C (dose: 100.0 mg/kg/injection, schedule: Q04DX003 (ip), vehicle: saline, evaluated on day 34): 145 % of control
- survivor count (dose: 112.0 mg/kg/injection, schedule: Q01DX009 (ip), vehicle: saline): 6 of 6
- survivor count (dose: 200.0 mg/kg/injection, schedule: Q01DX009 (ip), vehicle: saline): 5 of 6
- survivor count (dose: 200.0 mg/kg/injection, schedule: Q04DX003 (ip), vehicle: saline): 4 of 6
- survivor count (dose: 300.0 mg/kg/injection, schedule: Q04DX003 (ip), vehicle: saline): 2 of 6
- survivor count (dose: 400.0 mg/kg/injection, schedule: Q01DX009 (ip), vehicle: saline): 0 of 6

SMILES: CCC(=O)O[C@H]1CC(=O)N(C)c2cc(cc(OC)c2Cl)C/C(C)=C/C=C[C@@H](OC)[C@@]2(O)C[C@H](OC(=O)N2)[C@@H](C)[C@H]2O[C@@]12C
- T/C (dose: 1.8 micrograms/kg/injection, schedule: Q01DX009 (ip), vehicle: saline + alcohol): 129 % of control
- T/C (dose: 3.1 micrograms/kg/injection, schedule: Q01DX009 (ip), vehicle: saline + alcohol): 131 % of control
- T/C (dose: 6.2 micrograms/kg/injection, schedule: Q01DX009 (ip), vehicle: saline + alcohol): 140 % of control
- survivor count (dose: 100.0 micrograms/kg/injection, schedule: Q01DX009 (ip), vehicle: saline + alcohol): 4 of 4
- survivor count (dose: 200.0 micrograms/kg/injection, schedule: Q01DX009 (ip), vehicle: saline + alcohol): 2 of 4

SMILES: Cc1cc(N(C)C)ccc1/C=C/c1ccnc2ccccc12
- survivor count (dose: 400.0 mg/kg/injection, schedule: Q04DX002 (ip), vehicle: saline with Tween-80): 6 of 6

SMILES: CC(C)(C)NCC(CN(CC(CNC(C)(C)C)C(=O)c1ccccc1)C(C)(C)C)C(=O)c1ccccc1 (stereo not drawn)
- T/C [18]: 127 % of control (3×)
- survivor count [18]: 0 of 6
- T/C [2]: 104, 113, 122 % of control
- survivor count [2]: 0 of 6
- T/C [5]: 113 [4 of 6 alive] and 127 % of control
- survivor count [5]: 0 of 6 and 2 of 6

Source: PubChem BioAssay AID328 (DTP/NCI, 2004)
